Experimental data: ChEMBL document CHEMBL1122670, “Synthesis of previously inaccessible quinazolines and 1,4-benzodiazepines as potential anticonvulsants” (J Med Chem, 1984)

Molecular target: GABA-A receptor; anion channel
Test: Binding affinity for umolar GABA-A central benzodiazepine receptor
Assay type: protein-complex assay, Mus musculus

CN1C(=O)CN=C(c2ccccc2)c2cc(Cl)ccc21 [DIAZEPAM]
Ki: 85 µM
